Data on one sequence can be found in PMC5700166.

The exact form of at least one protein or probe is not confirmed. Where cells or extracts were used, other partners may take part. For some assays here: Weaker means in comparison with the reference protein, sequence or condition of that experiment.

Data set [1] deals with Ap-NF-kB delta427 (Exaiptasia pallida (Aiptasia)). Description: EMSA. The settings on record: 293 cell extract, high level, comparable to Nv-NF-kB; EMSA 30 min at 30 °C: 293 lysates and anemone lysates in either 10 mM Tris pH 7.4, 50 mM NaCl, 1 mM DTT, 1 mM EDTA; protein in a lysate after overexpression; protein details: FLAG (N-terminal); label: 32P (5' end, T4 PNK). A general note: A gel shift assay detects complexes by their altered migration in electrophoresis.

Data set [2] relates to Ap-NF-kB full length (Exaiptasia pallida (Aiptasia)). Description: EMSA. The settings on record: 293 cell extract, no high level of binding, unlike delta427; EMSA 30 min at 30 °C: 293 lysates and anemone lysates in either 10 mM Tris pH 7.4, 50 mM NaCl, 1 mM DTT, 1 mM EDTA; protein in a lysate after overexpression; protein details: FLAG (N-terminal); label: 32P (5' end, T4 PNK).

As to “TCGAGAGGTCGGGGAATTCCCCCCCCG / TCGACGGGGGGGGAATTCCCCGACCTC [NF-kB-site consensus EMSA probe]”, the binding result in data set [1] was “binds”; in data set [2], “binds more weakly”.
